Results are given in words; binding and its absence hold for the method and conditions named. For some of these results: Binding seen in cells or lysates may run through a third protein. Some entries that bind do so weakly or less than the wild type.
Experiments:
[1] = target: biotinylated hPD-L1 (extracellular domain of human PD-L1, Ala18 to Thr239, expressed in E. coli, non-glycosylated) (human); assay: [35S]-labeled variant on immobilized hPD-L1, normalized to SPAM
[2] = target: biotinylated hPD-L1 (extracellular domain of human PD-L1, Ala18 to Thr239, expressed in E. coli, non-glycosylated) (human); assay: radioactive pull-down of [35S]-labeled alanine variant on immobilized hPD-L1, normalized to SPAM
[3] = target: hPD-L1* (recombinant glycosylated human PD-L1 ectodomain, A18-T239, expressed in Expi293F cells) (human) (UniProt Q9NZQ7); assay: radioactive pull-down
[4] = target: hPD-L1* (recombinant glycosylated human PD-L1 ectodomain, A18-T239, expressed in Expi293F cells) (human) (UniProt Q9NZQ7); assay: radioactive pull-down of [35S]-labeled SPAM on immobilized target, normalized to hPD-L1* [cont.) E]

Sequences of proteins named here, by UniProt entry; tags and fusion partners are left off. A change or cut given only in a name is not applied to a line headed by its entry.
UniProt Q9NZQ7: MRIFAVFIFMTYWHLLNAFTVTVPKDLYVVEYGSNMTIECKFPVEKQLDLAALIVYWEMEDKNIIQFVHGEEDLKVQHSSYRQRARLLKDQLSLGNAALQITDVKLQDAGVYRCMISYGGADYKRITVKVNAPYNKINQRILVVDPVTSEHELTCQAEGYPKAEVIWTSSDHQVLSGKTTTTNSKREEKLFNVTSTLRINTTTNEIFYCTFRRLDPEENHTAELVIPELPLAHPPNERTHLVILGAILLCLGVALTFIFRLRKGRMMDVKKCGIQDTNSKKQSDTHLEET

| binding [1] | binding [2] | binding [3] | binding [4] | Binder |
| --- | --- | --- | --- | --- |
| binds | binds |  |  | MPIFLDHILNKFWILHAAGSGSSGHHHHHHSS ([35S]-methionine label) [SPAM Y18A variant as printed (tyrosine of SPAM replaced by alanine; Tyr stands at position 17)] |
|  |  | binds | binds | MPIFLDHILNKFWILHYAGSGSSGHHHHHHSS ([35S]-methionine label) [[35S]-labeled SPAM peptide (in vitro translated)] |

Reference: patent publication US20230174616A1
